Experimental data from the supplement of paper PMC10727501.
This is one part of the list. Repeats in this data set agree poorly, so a single value says little.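 Researchers measured free-swimming zebrafish larvae's O-bend response probability to dark flashes (naive: first five; training: remaining flashes of four 60-flash blocks; test: later 60-flash block) and OMR turning toward alternating leftward/rightward LED motion. Six treated larvae were compared to sixty 0.1% DMSO controls, with |SSMD|≥2 marking a hit.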

Test system: Danio rerio larvae (5 dpf, TLF)
Test: Prob-Train (SSMD vs DMSO vehicle); higher = higher than vehicle (e.g. higher dark-flash O-bend response probability, or better optomotor performance)
Settings: 10 µM; pre-incubation: 30-90 min

| Compound | Prob-Train |
| --- | --- |
| Cc1cc(C)nc(NS(=O)(=O)c2ccc(NC(=S)NC(=O)COc3ccc(Br)cc3Cl)cc2)n1 | -0.631 |
| NC(=O)c1cccnc1 [Nicotinamide (Vitamin B3)] | -0.353 |
| COc1cc2ncnc(Nc3cccc(Cl)c3)c2cc1OC [AG-1478 (Tyrphostin AG-1478)] | -0.535 |
| N#CC[C@H](C1CCCC1)n1cc(-c2ncnc3[nH]ccc23)cn1 | -0.151 |
| CC(C)[C@@H](C)/C=C/[C@@H](C)[C@@H]1CC[C@H]2C3=CC=C4C[C@@H](O)CC[C@]4(C)[C@@H]3CC[C@@]21C [Ergosterol] | 0.475 |
| CC(C(O)c1ccc(O)cc1)N1CCC(Cc2ccccc2)CC1.CC(C(O)c1ccc(O)cc1)N1CCC(Cc2ccccc2)CC1.O=C(O)[C@H](O)[C@@H](O)C(=O)O (stereo unspecified) [Ifenprodil Tartrate] | -0.692 |
| NC(=O)c1ncn([C@@H]2O[C@H](CO)[C@@H](O)[C@@H]2O)c1O [Mizoribine] | -0.429 |
| O=NN(CCCl)C(=O)NC1CCCCC1 [Lomustine] | -0.644 |
| CC(=O)CCCCn1c(=O)c2c(ncn2C)n(C)c1=O [Pentoxifylline] | 0.348 |
| OCCn1cc(-c2cnc3nnn(Cc4ccc5ncccc5c4)c3n2)cn1 | 0.347 |
| COc1ccc(CNc2nc(N3CCC[C@H]3CO)ncc2C(=O)NCc2ncccn2)cc1Cl [Avanafil] | 0.426 |
| CCO[C@H]1OC(=O)C[C@@H]1NC(=O)[C@@H]1CCCN1C(=O)[C@@H](NC(=O)c1ccc(N)c(Cl)c1)C(C)(C)C | -0.482 |
| CN(C)Cc1c(C(=O)NCCOc2ccc(C(=O)NO)cc2)oc2ccccc12 | 0.28 |
| O=C([O-])CC(O)(CC(=O)[O-])C(=O)[O-].O=C([O-])CC(O)(CC(=O)[O-])C(=O)[O-].[Bi+3].[K+].[K+].[K+].[K+].[K+] [Bismuth Subcitrate Potassium] | 0.114 |
| CCn1c(N)c(C(=O)NC)c(=O)c2ccc(C#C[C@@](C)(O)COC)nc21 | 0.189 |
| CC1(C)CNc2cc(NC(=O)c3cccnc3NCc3ccncc3)ccc21.O=P(O)(O)O.O=P(O)(O)O [Motesanib Diphosphate (AMG-706)] | -0.808 |

Another view of 2 compounds above:
Compound	Prob-Train
OCCn1cc(-c2cnc3nnn(Cc4ccc5ncccc5c4)c3n2)cn1	0.347
COc1ccc(CNc2nc(N3CCC[C@H]3CO)ncc2C(=O)NCc2ncccn2)cc1Cl [Avanafil]	0.426

Next part

| Compound | Prob-Train |
| --- | --- |
| COC(=O)Nc1ccc(-c2nc(N3CCOCC3)c3cnn(C4CCN(C(=O)OC)CC4)c3n2)cc1 | -0.806 |
| Cl.O=C(O)/C=C/c1ccc(Cn2ccnc2)cc1 [Ozagrel HCl] | -0.0854 |
| Cc1ccc(NC(=O)c2ccc(CN3CC[C@H](N(C)C)C3)c(C(F)(F)F)c2)cc1Nc1ncc(-c2cncnc2)cn1 [Bafetinib (INNO-406)] | -0.561 |
| Cc1cc(O)c2c(c1)C(=O)c1cccc(O)c1C2=O [Chrysophanic Acid] | -0.402 |
| NNC(=O)c1ccncc1.Nc1ccc(C(=O)O)c(O)c1 [Pasiniazid] | 0.0485 |
| Cc1cc(C)cc(NC(=O)Cc2ccc(OC(C)(C)C(=O)[O-])cc2)c1.[Na+] [Efaproxiral Sodium] | 0.139 |
| CCCC(C(=O)OCCN(CC)CC)(c1ccccc1)c1ccccc1.Cl [Proadifen HCl] | 0.127 |
| Cc1cnc(Nc2ccc(N3CCN(C)CC3)cc2)nc1Nc1cccc(S(=O)(=O)NC(C)(C)C)c1 | 0.277 |
| CN1C2CCCC1CC(NC(=O)c1nn(C)c3ccccc13)C2.Cl (stereo unspecified) [Granisetron HCl] | 0.199 |
| NC(=O)c1cnccn1 [Pyrazinamide] | -0.255 |
| CCC[C@@H]1C[C@@H](C(=O)N[C@@H](C(C)Cl)[C@H]2O[C@@H](SC)[C@H](O)[C@@H](O)[C@H]2O)N(C)C1.Cl (stereo partly specified) [Clindamycin HCl] | -0.103 |
| Cc1ncc([N+](=O)[O-])n1CC(C)O (stereo unspecified) [Secnidazole] | 0.22 |
| OC[C@H]1O[C@@H](Oc2cc(O)cc(/C=C/c3ccc(O)cc3)c2)[C@@H](O)[C@@H](O)[C@@H]1O [Polydatin] | -0.16 |
| O=C(Nc1cccc(Nc2ncc(Br)c(NCCc3cnc[nH]3)n2)c1)N1CCCC1 | 0.412 |
| CC(=O)NS(=O)(=O)c1ccc(NC(=O)c2ccccc2C(=O)O)cc1 [Phthalylsulfacetamide] | -0.0961 |
